Results are given in words; binding and its absence hold for the method and conditions named. For part of these data: In cells and extracts the contact can be indirect. Some results given as binding are weak or reduced against the parent protein; the word gives no strength. Sequences can lack the tags named with a protein.
T1: BMAL2 TAD, residues 540-579 (mouse) (UniProt Q2VPD4)
T1 sequence: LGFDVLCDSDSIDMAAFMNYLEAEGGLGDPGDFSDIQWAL

The chains behind the UniProt entries cited, without tags or fusion partners.
UniProt O54943: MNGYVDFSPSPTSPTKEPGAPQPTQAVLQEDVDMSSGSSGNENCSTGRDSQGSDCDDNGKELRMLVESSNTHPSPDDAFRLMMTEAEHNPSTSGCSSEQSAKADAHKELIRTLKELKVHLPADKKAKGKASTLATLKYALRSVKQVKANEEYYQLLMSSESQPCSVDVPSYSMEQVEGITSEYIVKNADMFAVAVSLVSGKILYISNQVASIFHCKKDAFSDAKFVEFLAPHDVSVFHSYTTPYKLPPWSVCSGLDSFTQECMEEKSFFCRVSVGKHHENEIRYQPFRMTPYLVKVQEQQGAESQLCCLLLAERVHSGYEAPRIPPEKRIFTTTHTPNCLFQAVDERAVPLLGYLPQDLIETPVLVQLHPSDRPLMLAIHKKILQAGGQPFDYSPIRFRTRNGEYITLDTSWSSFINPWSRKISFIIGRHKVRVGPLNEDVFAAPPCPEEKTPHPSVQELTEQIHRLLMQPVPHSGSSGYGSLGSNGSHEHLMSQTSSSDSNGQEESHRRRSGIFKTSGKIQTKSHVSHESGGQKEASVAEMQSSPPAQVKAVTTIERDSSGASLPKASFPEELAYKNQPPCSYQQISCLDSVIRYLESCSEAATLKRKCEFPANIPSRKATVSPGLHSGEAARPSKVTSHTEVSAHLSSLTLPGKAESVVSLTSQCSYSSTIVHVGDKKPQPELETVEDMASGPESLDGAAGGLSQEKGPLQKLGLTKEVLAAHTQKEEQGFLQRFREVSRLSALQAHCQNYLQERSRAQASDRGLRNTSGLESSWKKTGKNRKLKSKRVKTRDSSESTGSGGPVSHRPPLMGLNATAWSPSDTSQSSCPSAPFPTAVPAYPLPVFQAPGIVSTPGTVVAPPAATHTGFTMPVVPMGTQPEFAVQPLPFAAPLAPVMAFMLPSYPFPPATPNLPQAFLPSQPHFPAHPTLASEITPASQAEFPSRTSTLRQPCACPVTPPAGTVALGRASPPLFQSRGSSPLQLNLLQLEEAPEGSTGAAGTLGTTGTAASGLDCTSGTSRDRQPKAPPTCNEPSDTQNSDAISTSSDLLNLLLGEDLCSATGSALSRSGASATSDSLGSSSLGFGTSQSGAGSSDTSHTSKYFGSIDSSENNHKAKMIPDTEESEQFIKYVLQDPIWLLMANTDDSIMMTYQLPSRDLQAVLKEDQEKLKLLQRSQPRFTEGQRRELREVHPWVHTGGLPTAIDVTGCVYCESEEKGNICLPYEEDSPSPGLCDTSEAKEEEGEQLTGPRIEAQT

T2: CHRONO-flag, full length (human) (UniProt Q8N365)
T2 sequence: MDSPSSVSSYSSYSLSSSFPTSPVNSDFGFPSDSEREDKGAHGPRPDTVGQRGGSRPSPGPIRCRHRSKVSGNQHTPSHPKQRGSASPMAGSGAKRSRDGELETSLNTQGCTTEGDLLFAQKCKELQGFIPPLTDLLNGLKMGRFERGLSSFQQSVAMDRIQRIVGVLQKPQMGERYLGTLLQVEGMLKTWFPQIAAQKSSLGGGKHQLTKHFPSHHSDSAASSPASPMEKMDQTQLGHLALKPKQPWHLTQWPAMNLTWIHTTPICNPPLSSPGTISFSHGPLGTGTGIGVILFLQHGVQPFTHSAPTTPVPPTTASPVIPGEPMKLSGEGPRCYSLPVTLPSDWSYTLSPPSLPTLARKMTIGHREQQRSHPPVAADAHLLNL

B1: His-CHRONO minimal repressive domain (MRD) (domain or fragment, UniProt Q8N365 101-245)
chain: ELETSLNTQGCTTEGDLLFAQKCKELQGFIPPLTDLLNGLKMGRFERGLSSFQQSVAMDRIQRIVGVLQKPQMGERYLGTLLQVEGMLKTWFPQIAAQKSSLGGGKHQLTKHFPSHHSDSAASSPASPMEKMDQTQLGHLALKPK
B2: PER2 1-763 (domain or fragment, UniProt O15055 1-763)
chain: MNGYAEFPPSPSNPTKEPVEPQPSQVPLQEDVDMSSGSSGHETNENCSTGRDSQGSDCDDSGKELGMLVEPPDARQSPDTFSLMMAKSEHNPSTSGCSSDQSSKVDTHKELIKTLKELKVHLPADKKAKGKASTLATLKYALRSVKQVKANEEYYQLLMSSEGHPCGADVPSYTVEEMESVTSEHIVKNADMFAVAVSLVSGKILYISDQVASIFHCKRDAFSDAKFVEFLAPHDVGVFHSFTSPYKLPLWSMCSGADSFTQECMEEKSFFCRVSVRKSHENEIRYHPFRMTPYLVKVRDQQGAESQLCCLLLAERVHSGYEAPRIPPEKRIFTTTHTPNCLFQDVDERAVPLLGYLPQDLIETPVLVQLHPSDRPLMLAIHKKILQSGGQPFDYSPIRFRARNGEYITLDTSWSSFINPWSRKISFIIGRHKVRVGPLNEDVFAAHPCTEEKALHPSIQELTEQIHRLLLQPVPHSGSSGYGSLGSNGSHEHLMSQTSSSDSNGHEDSRRRRAEICKNGNKTKNRSHYSHESGEQKKKSVTEMQTNPPAEKKAVPAMEKDSLGVSFPEELACKNQPTCSYQQISCLDSVIRYLESCNEAATLKRKCEFPANVPALRSSDKRKATVSPGPHAGEAEPPSRVNSRTGVGTHLTSLALPGKAESVASLTSQCSYSSTIVHVGDKKPQPELEMVEDAASGPESLDCLAGPALACGLSQEKEPFKKLGLTKEVLAAHTQKEEQSFLQKFKEIRKLSIFQSHCHYYLQ
B3: CHRONO minimal repressive domain (MRD), tag form not stated (domain or fragment, UniProt Q8N365 101-245)
chain: B1 chain
B4: PER2 1-473 (domain or fragment, UniProt O15055 1-473)
chain: MNGYAEFPPSPSNPTKEPVEPQPSQVPLQEDVDMSSGSSGHETNENCSTGRDSQGSDCDDSGKELGMLVEPPDARQSPDTFSLMMAKSEHNPSTSGCSSDQSSKVDTHKELIKTLKELKVHLPADKKAKGKASTLATLKYALRSVKQVKANEEYYQLLMSSEGHPCGADVPSYTVEEMESVTSEHIVKNADMFAVAVSLVSGKILYISDQVASIFHCKRDAFSDAKFVEFLAPHDVGVFHSFTSPYKLPLWSMCSGADSFTQECMEEKSFFCRVSVRKSHENEIRYHPFRMTPYLVKVRDQQGAESQLCCLLLAERVHSGYEAPRIPPEKRIFTTTHTPNCLFQDVDERAVPLLGYLPQDLIETPVLVQLHPSDRPLMLAIHKKILQSGGQPFDYSPIRFRARNGEYITLDTSWSSFINPWSRKISFIIGRHKVRVGPLNEDVFAAHPCTEEKALHPSIQELTEQIHRLLLQP
B5: PER2 1-569 (domain or fragment, UniProt O15055 1-569)
chain: MNGYAEFPPSPSNPTKEPVEPQPSQVPLQEDVDMSSGSSGHETNENCSTGRDSQGSDCDDSGKELGMLVEPPDARQSPDTFSLMMAKSEHNPSTSGCSSDQSSKVDTHKELIKTLKELKVHLPADKKAKGKASTLATLKYALRSVKQVKANEEYYQLLMSSEGHPCGADVPSYTVEEMESVTSEHIVKNADMFAVAVSLVSGKILYISDQVASIFHCKRDAFSDAKFVEFLAPHDVGVFHSFTSPYKLPLWSMCSGADSFTQECMEEKSFFCRVSVRKSHENEIRYHPFRMTPYLVKVRDQQGAESQLCCLLLAERVHSGYEAPRIPPEKRIFTTTHTPNCLFQDVDERAVPLLGYLPQDLIETPVLVQLHPSDRPLMLAIHKKILQSGGQPFDYSPIRFRARNGEYITLDTSWSSFINPWSRKISFIIGRHKVRVGPLNEDVFAAHPCTEEKALHPSIQELTEQIHRLLLQPVPHSGSSGYGSLGSNGSHEHLMSQTSSSDSNGHEDSRRRRAEICKNGNKTKNRSHYSHESGEQKKKSVTEMQTNPPAEKKAVPAMEKDSLGVSFPE
B6: PER2 1-720 (domain or fragment, UniProt O15055 1-720)
chain: MNGYAEFPPSPSNPTKEPVEPQPSQVPLQEDVDMSSGSSGHETNENCSTGRDSQGSDCDDSGKELGMLVEPPDARQSPDTFSLMMAKSEHNPSTSGCSSDQSSKVDTHKELIKTLKELKVHLPADKKAKGKASTLATLKYALRSVKQVKANEEYYQLLMSSEGHPCGADVPSYTVEEMESVTSEHIVKNADMFAVAVSLVSGKILYISDQVASIFHCKRDAFSDAKFVEFLAPHDVGVFHSFTSPYKLPLWSMCSGADSFTQECMEEKSFFCRVSVRKSHENEIRYHPFRMTPYLVKVRDQQGAESQLCCLLLAERVHSGYEAPRIPPEKRIFTTTHTPNCLFQDVDERAVPLLGYLPQDLIETPVLVQLHPSDRPLMLAIHKKILQSGGQPFDYSPIRFRARNGEYITLDTSWSSFINPWSRKISFIIGRHKVRVGPLNEDVFAAHPCTEEKALHPSIQELTEQIHRLLLQPVPHSGSSGYGSLGSNGSHEHLMSQTSSSDSNGHEDSRRRRAEICKNGNKTKNRSHYSHESGEQKKKSVTEMQTNPPAEKKAVPAMEKDSLGVSFPEELACKNQPTCSYQQISCLDSVIRYLESCNEAATLKRKCEFPANVPALRSSDKRKATVSPGPHAGEAEPPSRVNSRTGVGTHLTSLALPGKAESVASLTSQCSYSSTIVHVGDKKPQPELEMVEDAASGPESLDCLAGPALACGLSQEKEPF

Assays:
[1] = target: T1, BMAL2 TAD, residues 540-579 (mouse); experiment: ITC
[2] = target: T2, CHRONO-flag, full length (human); experiment: co-IP
[3] = target: Full-length mouse His-PERIOD2-flag (mouse, UniProt O54943 1-1257); experiment: pull-down

Binder	binding [2]	further results
B1		binding [1]: binds weakly
B2	binds	
B3		binding [3]: no binding
B4	no binding	
B5	no binding	
B6	no binding	

— publication doi:10.1101/2022.10.04.510902 (bioRxiv, 2022)
